The values that follow come from paper doi:10.1101/792705.

Sequences of proteins named here, by UniProt entry; tags and fusion partners are left off.
UniProt P22366: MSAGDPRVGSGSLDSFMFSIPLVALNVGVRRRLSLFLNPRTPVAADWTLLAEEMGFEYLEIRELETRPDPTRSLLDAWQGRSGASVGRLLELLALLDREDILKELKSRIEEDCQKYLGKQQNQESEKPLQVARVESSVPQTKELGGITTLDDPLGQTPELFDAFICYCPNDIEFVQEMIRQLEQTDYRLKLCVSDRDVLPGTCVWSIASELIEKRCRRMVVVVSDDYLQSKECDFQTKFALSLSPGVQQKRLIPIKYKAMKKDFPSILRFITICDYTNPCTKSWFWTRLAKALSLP

This assay addresses MyD88 (mouse (endogenous in BMDM)) (UniProt P22366). In words: co-IP.

Results are given in words; binding and its absence hold for the method and conditions named. Binding seen in cells or lysates may run through a third protein. Some binding calls cover weakened binding; strength is not graded here.

B1: IRAK-4 (enzyme, UniProt Q8R4K2 1-459)
chain: MNKPLTPSTYIRNLNVGILRKLSDFIDPQEGWKKLAVAIKKPSGDDRYNQFHIRRFEALLQTGKSPTCELLFDWGTTNCTVGDLVDLLVQIELFAPATLLLPDAVPQTVKSLPPREAATVAQTHGPCQEKDRTSVMPMPKLEHSCEPPDSSSPDNRSVESSDTRFHSFSFHELKSITNNFDEQPASAGGNRMGEGGFGVVYKGCVNNTIVAVKKLGAMVEISTEELKQQFDQEIKVMATCQHENLVELLGFSSDSDNLCLVYAYMPNGSLLDRLSCLDGTPPLSWHTRCKVAQGTANGIRFLHENHHIHRDIKSANILLDKDFTAKISDFGLARASARLAQTVMTSRIVGTTAYMAPEALRGEITPKSDIYSFGVVLLELITGLAAVDENREPQLLLDIKEEIEDEEKTIEDYTDEKMSDADPASVEAMYSAASQCLHEKKNRRPDIAKVQQLLQEMSA
Regarding B1, the binding entry is “binds”.

B2: TLR6 (receptor, UniProt Q9EPW9 28-795)
chain: FSNELESMVDYSNRNLTHVPKDLPPRTKALSLSQNSISELRMPDISFLSELRVLRLSHNRIRSLDFHVFLFNQDLEYLDVSHNRLQNISCCPMASLRHLDLSFNDFDVLPVCKEFGNLTKLTFLGLSAAKFRQLDLLPVAHLHLSCILLDLVSYHIKGGETESLQIPNTTVLHLVFHPNSLFSVQVNMSVNALGHLQLSNIKLNDENCQRLMTFLSELTRGPTLLNVTLQHIETTWKCSVKLFQFFWPRPVEYLNIYNLTITERIDREEFTYSETALKSLMIEHVKNQVFLFSKEALYSVFAEMNIKMLSISDTPFIHMVCPPSPSSFTFLNFTQNVFTDSVFQGCSTLKRLQTLILQRNGLKNFFKVALMTKNMSSLETLDVSLNSLNSHAYDRTCAWAESILVLNLSSNMLTGSVFRCLPPKVKVLDLHNNRIMSIPKDVTHLQALQELNVASNSLTDLPGCGAFSSLSVLVIDHNSVSHPSEDFFQSCQNIRSLTAGNNPFQCTCELRDFVKNIGWVAREVVEGWPDSYRCDYPESSKGTALRDFHMSPLSCDTVLLTVTIGATMLVLAVTGAFLCLYFDLPWYVRMLCQWTQTRHRARHIPLEELQRNLQFHAFVSYSEHDSAWVKNELLPNLEKDDIRVCLHERNFVPGKSIVENIINFIEKSYKAIFVLSPHFIQSEWCHYELYFAHHNLFHEGSDNLILILLEPILQNNIPSRYHKLRALMAQRTYLEWPTEKGKRGLFWANLRASFIMKLALVNEDDVKT
In the case of B2, the binding result is listed as “no binding”.
